Results published in US20230094922A1, “METHODS OF THERAPEUTIC PROGNOSTICATION” (GENETIKAPLUS LTD., priority 2020, published 2023).
At least one compound was matched to its structure with a doubt left.

Test system: iPSC-derived cortical neurons
Assay: Pre- and post-synaptic marker (Synapsin, PSD95) puncta and colocalization imaging analysis
Type: cell-based, human
Details: for intact synapses (colocalization of pre- and post-synaptic terminals), treated vs untreated: 7 days after treatment (Bupropion also 3 days)
Description: iPSC differentiation into neurons-iPSCs were seeded at a density of 3×10^6 cells/well on a hESC-qualified Matrigel pre-coated 6-well plate and incubated at 37° C., 5% CO2 overnight. Differentiation was initiated the following day (day 0) after verifying that 100% confluency was reached. Differentiation media was added daily according to the following order: […]7 (day 15 onward) similar to a previously published protocol developed by for rapid differentiation to cortical neurons. The components of the described media, Q1-7, are provided in Appendix 1. Cells were assessed for differentiation efficiency and cell death on a daily basis. On day 9, differentiated neurons were re-plated on either 96-well plates (destined for staining) or 12-well plates (destined for RNA extraction) that were coated with 15 μg/mL Poly-ornithine diluted in PBS (overnight incubation at 37° C.), followed by 1 μg/mL Laminin and 2 μg/mL Fibronectin diluted in PBS (overnight incubation at 37° C.): Neurons were first rinsed with pre-warmed PBS and 1 ml/well of Accutase was added for 35 minutes at 37° C., 5% CO2. DNAse1 (0.5 mg/mL) was then added for 10 additional minutes. 3 ml of pre-warmed Neurobasal media was added to each well and neurons were gently collected using a 5 ml […]. Wells were then verified for the presence of any remaining neurons. Neurons were spun down and resuspended in Q6 media. Neurons were seeded at a density of 150,000 cells/cm^2 placed back at 37° C. Following four hours of incubation, media was changed to Q6 media (150 μl per 96-well and 1 ml per 12-well). […] For dendritic arborization analysis, pre/post-synaptic markers and colocalization analysis; α-Syn, PSD95 and MAP2 primary antibodies were used. Following washes, fluorophore-coupled secondary antibodies were incubated in the blocking solution for 1 hour at room temperature. The cells were counter-stained with 4',6-diamidino-2-phenylindole (DAPI) for nuclei detection for 15 minutes at room temperature followed by washes with PBS. Imaging was performed using Nikon Spinning Disk Confocal microscope. For imaging of pre- and post-synaptic markers, images were acquired with a 100× objective in z-stacks. For dendritic arborization analysis, images were acquired with a 20× objective in z-stacks. For imaging of dendritic spines, during culture treatment described in materials and methods, cells were infected at Day 20 with human syn-GFP or mKate virus and stained for GFP or mKate. Cells were fixed as described at day 35 and stained with antibodies against GFP or mKate respectively. Images were acquired using the Nikon Confocal Alit with a 60× objective and a 2× digital zoom in z-stacks and using the Nikon spinning disk Microscope with a 100× objective in z-stacks. Neuronal and synaptic morphology was assessed using the Neurolucida software, pre- and post-synaptic marker analysis was performed using CellProfiler and total dendritic length was measured using Fiji software. Immunohistochemical examination was carried out on the induced neuronal cells.

CN(C)CCCC1(c2ccc(F)cc2)OCc2cc(C#N)ccc21 (centres unmarked) [Citalopram, 1-[3-(Dimethylamino)-propyl]-1-(p-fluorophenyl)-5-phthalancarbonitrile]
density of post-synaptic terminals (PSD95 puncta), responders vs non-responders (after treatment): increase in density was also present
intact synapses, responders vs non-responders (after treatment): more intact synapses
intact synapses (colocalization of pre- and post-synaptic terminals), treated vs untreated (neurons from non-responders): no change
density of post-synaptic terminals (distance between PSD95 puncta), after vs before treatment (neurons from responders, 7 days after treatment): significant increase in density
intact synapses (colocalization of pre- and post-synaptic terminals), treated vs untreated (neurons from responders): significant increase
